In publication PMC9596432 one finds binding data, which are given here for 1 molecule.

The target in the assay is FimL-3xFLAG (Acinetobacter baylyi ADP1). In words: affinity purification with mass spectrometry; FimL-3xFLAG captured from A. baylyi lysate on α-FLAG magnetic beads (Buffer 2: 50 mM Tris-Cl pH 7.4, 150 mM NaCl, 1 mM EDTA, 10 mM MgCl2, 0.1% Triton X-100, 2% glycerol; 4 °C, 2 h), eluted with 3X-FLAG peptide, in-gel trypsin digestion, LC-MS/MS.

No constants are given. Whether binding was seen depends on the method and setting. Binding seen in cells or lysates may run through a third protein. Here binding means that the protein was enriched with, or labelled near, the bait; the list need not be complete.

B1: FimV homologue encoded by gene ACIAD0477 (protein, UniProt Q6FEV0 1-384)
chain: MLYVIPFIILLVVAIIFIIRQRRQNASSSSHAKNNKNNEIKTSENDLSAAKTPVTIDPNIHERIDHLIDIGHLSAAEALINQTLNRDPSRHDLYLYLLDLHLRQNDELGIKQLIQNLQQLQLHDVLNQIEGKYRNTHEQKEKYAKIIQQKQQNIQDITRTASPTATAAIKVETTHTNPAPVQKHIIEEHQSLEFNPKPIAPVNKSEKSNTVPHQDISFVLEMADQITVSPKKNEAAAEVKVENQTRKLAASPPQALNADQEASHLAQPKVVEPRIDTPPVHTPVPPPTLTRQDTPPITLKQHLPPVAESLQPQPAQITVDHDPLIQAFPELANLDETQLDLELAEQYIELGAYASAQILLNQNESKFSAQQLELSKKLLNRMAS
With B1, the binding entry is on record as “binds”.
